Results as given in publication PMC4672292.
These are yes or no findings as the source states them, for the method shown. Some entries that bind do so weakly or less than the wild type.

Protein sequences, listed by entry. Tags and fused reporters are not part of them.
UniProt P68699: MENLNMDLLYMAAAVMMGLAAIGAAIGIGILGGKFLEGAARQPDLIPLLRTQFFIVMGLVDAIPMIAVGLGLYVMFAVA
UniProt P0A9A6: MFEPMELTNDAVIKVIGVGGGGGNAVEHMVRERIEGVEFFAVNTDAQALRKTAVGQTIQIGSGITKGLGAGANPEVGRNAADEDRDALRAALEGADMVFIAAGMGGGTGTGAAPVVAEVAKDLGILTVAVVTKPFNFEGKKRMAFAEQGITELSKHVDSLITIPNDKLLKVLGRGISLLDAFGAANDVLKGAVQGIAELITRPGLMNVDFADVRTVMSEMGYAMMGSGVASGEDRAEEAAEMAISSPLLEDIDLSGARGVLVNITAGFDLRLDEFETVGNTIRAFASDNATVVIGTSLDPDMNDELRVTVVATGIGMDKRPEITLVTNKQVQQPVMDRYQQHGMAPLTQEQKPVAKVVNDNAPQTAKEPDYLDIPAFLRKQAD
UniProt P0AGA2: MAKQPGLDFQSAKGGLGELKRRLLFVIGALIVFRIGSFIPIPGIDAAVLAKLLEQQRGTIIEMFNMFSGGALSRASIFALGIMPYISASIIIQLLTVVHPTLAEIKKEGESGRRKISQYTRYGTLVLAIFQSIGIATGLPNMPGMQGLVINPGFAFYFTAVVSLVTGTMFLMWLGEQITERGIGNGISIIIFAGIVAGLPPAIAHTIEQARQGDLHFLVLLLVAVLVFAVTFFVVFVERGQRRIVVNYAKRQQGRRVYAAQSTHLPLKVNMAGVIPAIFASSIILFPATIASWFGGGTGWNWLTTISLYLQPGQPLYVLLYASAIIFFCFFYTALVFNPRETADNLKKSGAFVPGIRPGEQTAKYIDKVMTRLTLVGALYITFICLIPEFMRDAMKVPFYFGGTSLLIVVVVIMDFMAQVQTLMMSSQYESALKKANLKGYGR

How the values were obtained:
[1] = target: FtsQ (E. coli (endogenous in MC4100)) (UniProt P06136); assay: native gel or EMSA; clear native PAGE (CN-PAGE, 4 °C) of mid-exponential E. coli MC4100 whole cells treated with lysozyme and solubilised with 1% DDM (750 mM aminocaproic acid, 50 mM Bis Tris pH 7.0); native gel Western-blotted and probed with antibodies; co-migration at about 1 MDa; also cells with an extra plasmid copy of ftsQ or ftsQ-D237N, without or with 0.2% arabinose
[2] = target: FtsQ (E. coli (endogenous in MC4100)) (UniProt P06136); assay: native gel or EMSA; 1 MDa band (found by anti-FtsQ) excised from the Coomassie-stained CN-PAGE gel of mid-exponential cells, run on SDS-PAGE, Western-blotted and probed with antibodies against division proteins
[3] = target: FtsQ (E. coli (endogenous in MC4100)) (UniProt P06136); assay: native gel or EMSA; as a3 but gel fragment cut at the same height from the lane of stationary phase cells

Foc (component of the F1-Fo ATP synthase) (from UniProt P68699 1-79)
binding [1]: no binding

FtsZ (from UniProt P0A9A6 1-383)
binding [2]: binds
binding [3]: no binding (condition: cells in stationary growth phase)

SecY (component of the SecYEG translocon) (from UniProt P0AGA2 1-443)
binding [1]: no binding

ZipA (from UniProt P77173 1-328)
binding [2]: binds
binding [3]: no binding (condition: cells in stationary growth phase)
